Binding data for 10 molecules are collected here from PMC10470608, “Bacterial TANGO2 homologs are heme-trafficking proteins that facilitate biosynthesis of cytochromes c” (mBio, 2023).

No constants are given. Whether binding was seen depends on the method and setting.

First the molecules themselves.
B1: T18-CcmA, full-length (protein, UniProt Q8EK40 1-216)
chain: MTNIISVDTLLSASKLTCIREERILFDELSFEINAGDIVQIEGPNGAGKTSLLRILAGLSRPYAGQTFYVNEDINRCRDEYNEDLLYLGHLAGVKSELTAEENLNFNLRISGYDDFDTSAILAKVNLSGFEEALAGHLSAGQHRRTALARLWHNDCKIWILDEPFTAIDKRGVEELEQLFIKHADNGGCVILTTHQDMGIIKDDRLRKIRLDYRFV
B2: T18-KatB (enzyme, UniProt Q8EHY4 1-486)
chain: MSQQYLTSQSGSPIADDQNSLSAGERGPLLLQDWHLIEKLAHFNRERIPERVVHAKGTGVYGTFTLTKDLSDYTIADHFNGVGKQTETFVRFSTVGGEMGSADAERDPRGFGLRFYTARGNHDIVGNNTPTFFLRDGIKFPDFIHTQKRNPLTNLKDPQAMWDFWSLNPEAMHQVTILMSDRGIPANYRQMHGYGSHTFSFWNAKGERFWVKFHFKSQQGVVNLSNEQADKLKGIDPDSSQRDMVVAITDGNFPRWTVNVQIMPEADANTYHINPFDLTKVWPHGDYPLIEIGVLELNRLPQNYFAEVEQVALAPSNLVPGVGASPDKMLQARLFAYADAQRYRIGANYNQLPVNCPHAAKANHHQRAGAMAGTQCPYHGSQTGGDASANYGPNSTIGALVEPANFAEPPLRLDGETARYSRYNQDDYTQAGNLYRIFSEEEKARLVATISGSLRQASMDVQQRMLAHFQKADADYGQRIKMALGL
B3: T18-CcmF, full-length (protein, UniProt Q8EK37 1-659)
chain: MIPELGHFSLIIGVAFAFLLTSVPLIGVARKDQYLVRYAWPLAYGMFFFIALSVVSLGYSFAVDDFSVAYVAHHSNSQLPIFFKIAAVWGGHEGSLLFWVFALSTWAASVALFSKGLEEVFTARVLAVLALIVIGFSLFMLLTSSPFERIFPMPAEGRDLNPMLQDVGLIFHPPMLYLGYVGFSVSFAFAIAALMSGHLDSAWARWSRPWTLAAWVFLTGGIALGSWWAYYELGWGGWWFWDPVENASFMPWLVGTALVHSLIVTEKRGAFRNWTVLLSIFAFSLSLLGTFIVRSGVLTSVHSFAADPSRGMFILLLLGLAIGGSLTLFAFRASEMSSPARFELKSKETMLLVCNVLLTVAAGTVLLGTLYPLLIDALGMGKISVGPPYFNAVFVPIVLVLFAFMGVGPIIRWKKSKAGELKRQLLVPALVSLVIGIVTPFIVDGAFNAWVACGIAAAAWIILATAKAAYSIVKPKDGEVSIARMGRSQLGMIIAHLGIAVSVIGATMVSNYSVEKSVRMGPGVSQELAGYTFKYLETKNVVGPNYTAQQGQIEIYKGDKLLTLLKPDRRQYNVRTMDMTEAGIDWGLFRDLYVTMGDPISSTEFAVRLNYKPFVRWLWFGAIFMMVGGFFAASDKRYRSKVAATVKPQAEKAKLATAQ
B4: T18-CcmD, full-length (protein, UniProt Q8EK43 1-66)
chain: MQFDSISDFFNMGGYAFYVWLAYGVTFFCLSTLIITSARQKRKVLIEIAKKMNREERLKETRSNKS
B5: T18-CcmI, full-length (protein, UniProt Q8EK38 1-415)
chain: MTTFWIFIALVMLISLTLIWIPHFRQQKLLRTEEAGVRKQTNLELFNERLATLEKELHEELLDQAEFDALKKELEISLLQDIKQASDDSLVNQIKPKSILWPSVMSVCLIAISGYLYQHLGAFENIGNTQAANPHAGMDTAQIMAQRVQMMEAQVQAEPENSQAWFSLGHAYISANQFDKAVAAFDKVIDLVGKHAELIGPKATALYYKAGQQMTPQVQALIDESLALDPQDPSTLLLVGMDAFFTAKYQKAINSWQTILDSNRPDVDRAALMNAIETANLRIQAETSGMPNDDVHKQAKVTSKSVSIAISISPELAAKAGPDDTIFVFARATEGPKVPLAATKVSAKSLPVTVTLDDSTGMGGDVKLSQTASVEVIAVLSKHGNIKPQAGDIQGKISKVNVGETANLVLDTQVQ
B6: T18-CcmC, full-length (protein, UniProt Q8EK42 1-248)
chain: MWKWLHPYADPERAYKLSGTLFPWFAILACLFITVGTVWGLLFAPTDYQQGDSYRIIFIHVPAASMSMAAYMGMATAAFIGLVWQVKLADWAAASIAPIGAVITFIALFTGATWGKPMWGTWWVWDARLTSELVLLFLYLGVISLYASFEDKVLAARAAGILAIVGVINIPIIKYSVEWWSSLHQPSTIRITEKSTMSSEMLYPLLINILGFGLMIGAITIVRFRAEILARNGMRPWVRELAKAEEVK
B7: T18-CcmG, full-length (protein, UniProt Q8EK36 1-184)
chain: MKKLVLFIPLVIFLGMGVFLYKGLFLNPQKLDSALEGKPIPAFQLERLETPNEMITNEQLKGKVALLNVWATWCPSCKYEHPFLVMLKRQNILPIYGINYRDERIPALEELRRQGDPYNINIYDKDGRLGLDLGVYGAPESFIVDHNGIIRYRYAGPIDQRVWSETLYPMIQQLQAEAAKDGAA
B8: T18-CcmH, full-length (protein, UniProt Q8EK35 1-159)
chain: MRTLTKIIGGLVLLLSMVTTVMATPVDTYEFKSPENQKRALELAHSLRCPQCQNQNLIDSNSPVASDLRLEVFKMVDEGKGDDEIIEFMTSRYGEFVLYKPKMETKTYILWLGPVGLLLLGLIVGFIFIRKQRITGAAGLEISAEDQKALDALLKRDSK
B9: T18-CcmB, full-length (protein, UniProt Q8EK41 1-228)
chain: MKRGISFTQAFFTLLQRDLKIAIRHRGDIFNPLLFFIMVVTLFPLGIGPEPQMLARIAPGIIWVAALLASMLSLERLFKADFSDGSLEQMLLSPQPLAILVLAKVLAHWLLTGVPLILIAPLLAVLLNLEANSYGALIATLALGTPVLSLLGAIGVALTVGLRKGGVLLSLLILPLYIPVLIFATSAIDAAGMNLPYDGQLAIIGAMLIGSLTLAPFAIGASLRVSTN
B10: T18-CcmE, full-length (protein, UniProt Q8EK44 1-161)
chain: MNPRRKKRLTLAVALIGGVAAIASLLLYALNSNLNLFYTPSEIVNGKTDTGVKPEAGQRIRVGGMVTVGSMVRDPNSLHVQFAVHDSLGGEILVTYDDLLPDLFREGQGIVAQGVLGEDGKLAATEVLAKHDENYMPPEVAEAMGQKHEKLDYSQQKSATQ

The test concerns the target T25-HtpA (S. oneidensis). Kind of test: two-hybrid; bacterial two-hybrid (BACTH, adenylate cyclase reconstitution) in E. coli BTH101: htpA in pKT25, target genes in pUT18; LB plates with 40 µg/mL X-gal and 0.5 mM IPTG, 30°C, 24 h; β-galactosidase activity.
Regarding B1, the binding result is given as “no binding”.
In the case of B2, the binding result was “no binding”.
As for B3, the entry is “no binding”; as for B4, “no binding”; as for B5, “no binding”.
As for B6, the entry is “no binding”; as for B7, “no binding”; as for B8, “no binding”.
As for B9, the entry is “no binding”; as for B10, “no binding”.
